Structures are written as SMILES. Where a name gives a salt, the structure may show the parent alone. The list shows a part of the results. This data set is noisy: repeats of one test often differ as much as different tests do.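 HEK293T cells were given each compound shortly before transfection with a reporter in which red mCherry is followed by the SARS-CoV-2 frameshift element and then GFP in the −1 frame, so GFP appears only after frameshifting.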

This assay has as its system HEK293T. As to the kind of experiment: percent viability (nuclei count) relative to control; higher = more viable cells. To be noted: 10 µM; 24 h.
For `c1ccc(CN(CCN2CCCC2)c2ccccc2)cc1` [histapyrrodine], the percent viability is 291%. Turning to `CC(C)NCC(O)c1ccc(NS(C)(=O)=O)cc1` (configuration not stated) [Sotalol·HCl], the percent viability worked out at 281%. As to `CC(C)(C(=O)c1cccnc1)c1cccnc1` [metyrapone], the percent viability amounted to 207%.

Regarding `O=C(C[C@H](CSc1ccccc1)C(=O)O)c1ccc(-c2ccc(Cl)cc2)cc1` [tanomastat], the percent viability is 326%. `CC[C@H]1OC(=O)[C@H](C)[C@@H](O[C@H]2C[C@@](C)(OC)[C@@H](O)[C@H](C)O2)[C@H](C)[C@@H](O[C@@H]2O[C@H](C)C[C@H](N(C)C)[C@H]2O)[C@](C)(O)C[C@@H](C)/C(=N/OC)[C@H](C)[C@@H](O)[C@]1(C)O` [lexithromycin]: the percent viability is 119%. For `Cc1ccc(-c2ncc(Cl)cc2-c2ccc(S(C)(=O)=O)cc2)cn1` [etoricoxib], the percent viability was 23.3%. With `Cc1cc(CC(C)CC(C)(C)C)n(O)c(=O)c1` (configuration not stated), the percent viability is 63.7%.
